# Measured values from the supplement of paper PMC4604168 (melanoma cell lines).
# The list shows a part of the results. Single values are uncertain, as repeats are few or missing.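 Imaging used 1,536-well plates; nuclei positive for cleaved PARP by antibody were divided by total DNA-stained nuclei to yield the apoptosis fraction. Doses for screening kept most cells viable, and cell lines differ markedly in resting and induced cleaved-PARP levels.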
# System: RPMI7951
# Test: cleaved PARP positive nuclei fraction relative to DMSO control; melanoma cells; higher = more apoptosis
# Conditions: library dose: low library concentration; 72 h
row,Structure (SMILES),cleaved PARP positive nuclei fraction [%]
1,"CCc1ccc(CCOc2ccc(CC3SC(=O)NC3=O)cc2)nc1 (stereo unspecified) [pioglitazone] + CCCCCCCCCCCC1=C(O)C(=O)C=C(O)C1=O [Embelin] (first compound 2 µM, partner dose 1.2 µM)",142
2,"CN(C)S(=O)(=O)c1ccc2c(c1)/C(=C/c1cc3c([nH]1)CCCC3)C(=O)N2 + c1cc(-c2cnn3cc(-c4ccc(OCCN5CCCCC5)cc4)cnc23)ccn1 [Dorsomorphin] (first compound 0.4 µM, partner dose 0.4 µM)",81.2
3,"O=C(Nc1ccccc1)c1cc([N+](=O)[O-])ccc1Cl + O=c1cc(-c2cccc3c2Sc2ccccc2S3)oc(N2CCOCC2)c1 [KU55933] (first compound 2 µM, partner dose 1 µM)",107
4,"COc1cc2ncnc(Nc3ccc(Oc4ccccc4)cc3)c2cc1OC + O=C(O)C(=O)Nc1sc2c(c1C(=O)O)CCNC2 [TCS401] (first compound 2 µM, partner dose 1.66667 µM)",31.1
5,"COc1ccc(-c2ccc3c(N4CCOCC4)nc(N4C[C@@H](C)O[C@@H](C)C4)nc3n2)cc1CO + Oc1nc(-c2ccc(C(F)(F)F)cc2)nc2c1CSCC2 [XAV939] (first compound 0.02 µM, partner dose 2 µM)",192
6,"CN(NC(=O)CC(=O)NN(C)C(=S)c1ccccc1)C(=S)c1ccccc1 + CCc1ccc(CCOc2ccc(CC3SC(=O)NC3=O)cc2)nc1 [pioglitazone] (first compound 0.006 µM, partner dose 2 µM)",57.3
7,"CCc1ccc(CCOc2ccc(CC3SC(=O)NC3=O)cc2)nc1 (stereo unspecified) [pioglitazone] + Cc1cc([N+](=O)[O-])ccc1NS(=O)(=O)c1cc(Cl)ccc1Cl [FH535] (first compound 2 µM, partner dose 1 µM)",66.2
8,"CCN(CC)CCCCNc1ncc2cc(-c3cc(OC)cc(OC)c3)c(NC(=O)NC(C)(C)C)nc2n1 + O=c1cc(-c2cccc3c2Sc2ccccc2S3)oc(N2CCOCC2)c1 [KU55933] (first compound 0.1 µM, partner dose 1 µM)",76.4
9,"COc1ccc(COc2ccc(Cc3cnc(N)nc3N)cc2OC)cc1 + O=C1NC(=O)/C(=C/c2ccc(-c3ccc(F)cc3O)o2)S1 [AS252424] (first compound 1 µM, partner dose 1 µM)",147
10,"Oc1cc(-c2nc(-c3ccccc3)[nH]c2-c2ccncc2)ccc1Cl + Cn1cc(/C=C2\C(=O)Nc3cccnc32)c2ccccc21 [GW441756] (first compound 0.2 µM, partner dose 0.4 µM)",34.9
11,"NCC(=O)Nc1ccc(-n2nc(C(F)(F)F)cc2-c2ccc3c(ccc4ccccc43)c2)cc1 + Oc1cc(-c2nc(-c3ccccc3)[nH]c2-c2ccncc2)ccc1Cl [L779450] (first compound 1 µM, partner dose 0.2 µM)",89.9
12,"O=S(=O)(c1ccccc1)N(CC(F)(F)F)c1ccc(C(O)(C(F)(F)F)C(F)(F)F)cc1 + CC(C)CCN1c2nc(Nc3cc(F)c(O)c(F)c3)ncc2N(C)C(=O)C1C [BID1870] (first compound 1.4 µM, partner dose 0.2 µM)",78.4
13,"Cn1cc(/C=C2\C(=O)Nc3cccnc32)c2ccccc21 + CC(C)CCN1c2nc(Nc3cc(F)c(O)c(F)c3)ncc2N(C)C(=O)C1C [BID1870] (first compound 0.4 µM, partner dose 0.2 µM)",73.4
14,"O=C1NC(=O)/C(=C/c2ccc(-c3ccc(F)cc3O)o2)S1 + COc1cc(N2CCC(N3CCN(C)CC3)CC2)ccc1Nc1ncc(Cl)c(Nc2ccccc2S(=O)(=O)C(C)C)n1 [NVP-TAE684] (first compound 1 µM, partner dose 0.08 µM)",84.3
15,"N#Cc1c(O)c2c(-c3ccc(-c4ccccc4O)cc3)csc2[nH]c1=O + CCN(CC)CCCCNc1ncc2cc(-c3cc(OC)cc(OC)c3)c(NC(=O)NC(C)(C)C)nc2n1 [PD173074] (first compound 2 µM, partner dose 0.1 µM)",80.4
16,"CN(C)S(=O)(=O)c1ccc2c(c1)/C(=C/c1cc3c([nH]1)CCCC3)C(=O)N2 + COc1ccc2c(c1)CCC1C2CCC2(C)C(NCCCCCCN3C(=O)C=CC3=O)CCC12 [U73122] (first compound 0.4 µM, partner dose 0.4 µM)",132
17,"Oc1cc(-c2nc(-c3ccccc3)[nH]c2-c2ccncc2)ccc1Cl + c1cc(-c2cnn3cc(-c4ccc(OCCN5CCCCC5)cc4)cnc23)ccn1 [Dorsomorphin] (first compound 0.2 µM, partner dose 0.4 µM)",41.3
18,"Oc1nc(-c2ccc(C(F)(F)F)cc2)nc2c1CSCC2 + CCCCCCCCCCCC1=C(O)C(=O)C=C(O)C1=O [Embelin] (first compound 2 µM, partner dose 1.2 µM)",48.3

row,Structure (SMILES),cleaved PARP positive nuclei fraction [%]
1,"CN(C)S(=O)(=O)c1ccc2c(c1)/C(=C/c1cc3c([nH]1)CCCC3)C(=O)N2 + CCN(CC)CCCCNc1ncc2cc(-c3cc(OC)cc(OC)c3)c(NC(=O)NC(C)(C)C)nc2n1 [PD173074] (first compound 0.4 µM, partner dose 0.1 µM)",45.4
2,"COc1ccc(-c2ccc3c(N4CCOCC4)nc(N4C[C@@H](C)O[C@@H](C)C4)nc3n2)cc1CO + O=c1cc(-c2cccc3c2Sc2ccccc2S3)oc(N2CCOCC2)c1 [KU55933] (first compound 0.02 µM, partner dose 1 µM)",75.5
3,"NCC(=O)Nc1ccc(-n2nc(C(F)(F)F)cc2-c2ccc3c(ccc4ccccc43)c2)cc1 + Cn1cc(/C=C2\C(=O)Nc3cccnc32)c2ccccc21 [GW441756] (first compound 1 µM, partner dose 0.4 µM)",31.7
4,"COc1ccc(-c2ccc3c(N4CCOCC4)nc(N4C[C@@H](C)O[C@@H](C)C4)nc3n2)cc1CO + CC(C)CCN1c2nc(Nc3cc(F)c(O)c(F)c3)ncc2N(C)C(=O)C1C [BID1870] (first compound 0.02 µM, partner dose 0.2 µM)",16.7
5,"CCN(CC)CCCCNc1ncc2cc(-c3cc(OC)cc(OC)c3)c(NC(=O)NC(C)(C)C)nc2n1 + Cc1cc([N+](=O)[O-])ccc1NS(=O)(=O)c1cc(Cl)ccc1Cl [FH535] (first compound 0.1 µM, partner dose 1 µM)",77.6
6,"COc1cc2c(Oc3ccc4[nH]c(C)cc4c3F)ncnc2cc1OCCCN1CCCC1 [cediranib] + CCN(CC)CCCCNc1ncc2cc(-c3cc(OC)cc(OC)c3)c(NC(=O)NC(C)(C)C)nc2n1 [PD173074] (first compound 0.4 µM, partner dose 0.1 µM)",46
7,"O=C(O)c1ccc(-c2c[nH]c3ncc(-c4ccccc4)cc23)cc1C1CCCC1 + Cn1cc(/C=C2\C(=O)Nc3cccnc32)c2ccccc21 [GW441756] (first compound 0.16 µM, partner dose 0.4 µM)",73.8
8,"O=C(O)c1ccc(-c2c[nH]c3ncc(-c4ccccc4)cc23)cc1C1CCCC1 + Oc1nc(-c2ccc(C(F)(F)F)cc2)nc2c1CSCC2 [XAV939] (first compound 0.16 µM, partner dose 2 µM)",52.1
9,"N#Cc1c(O)c2c(-c3ccc(-c4ccccc4O)cc3)csc2[nH]c1=O + COc1cc(N2CCC(N3CCN(C)CC3)CC2)ccc1Nc1ncc(Cl)c(Nc2ccccc2S(=O)(=O)C(C)C)n1 [NVP-TAE684] (first compound 2 µM, partner dose 0.08 µM)",20.1
10,"Oc1cc(-c2nc(-c3ccccc3)[nH]c2-c2ccncc2)ccc1Cl + COc1cc(N2CCC(N3CCN(C)CC3)CC2)ccc1Nc1ncc(Cl)c(Nc2ccccc2S(=O)(=O)C(C)C)n1 [NVP-TAE684] (first compound 0.2 µM, partner dose 0.08 µM)",83.4
11,"COc1ccc2c(c1)CCC1C2CCC2(C)C(NCCCCCCN3C(=O)C=CC3=O)CCC12 (stereo unspecified) + Oc1cc(-c2nc(-c3ccccc3)[nH]c2-c2ccncc2)ccc1Cl [L779450] (first compound 0.4 µM, partner dose 0.2 µM)",309
12,"COc1cc2c(Oc3ccc4[nH]c(C)cc4c3F)ncnc2cc1OCCCN1CCCC1 [cediranib] + Oc1cc(-c2nc(-c3ccccc3)[nH]c2-c2ccncc2)ccc1Cl [L779450] (first compound 0.4 µM, partner dose 0.2 µM)",86.6
13,"O=S(=O)(c1ccccc1)N(CC(F)(F)F)c1ccc(C(O)(C(F)(F)F)C(F)(F)F)cc1 + Cn1cc(/C=C2\C(=O)Nc3cccnc32)c2ccccc21 [GW441756] (first compound 1.4 µM, partner dose 0.4 µM)",36.4
14,"N#Cc1c(O)c2c(-c3ccc(-c4ccccc4O)cc3)csc2[nH]c1=O + CC(C)CCN1c2nc(Nc3cc(F)c(O)c(F)c3)ncc2N(C)C(=O)C1C [BID1870] (first compound 2 µM, partner dose 0.2 µM)",76.1
15,"O=S(=O)(c1ccccc1)N(CC(F)(F)F)c1ccc(C(O)(C(F)(F)F)C(F)(F)F)cc1 + Oc1cc(-c2nc(-c3ccccc3)[nH]c2-c2ccncc2)ccc1Cl [L779450] (first compound 1.4 µM, partner dose 0.2 µM)",172
16,"CN(NC(=O)CC(=O)NN(C)C(=S)c1ccccc1)C(=S)c1ccccc1 + COC(=O)c1sccc1S(=O)(=O)Nc1ccc(Nc2ccccc2)cc1OC [GSK0660] (first compound 0.006 µM, partner dose 1 µM)",79.7
17,"COc1cc2c(Oc3ccc4[nH]c(C)cc4c3F)ncnc2cc1OCCCN1CCCC1 [cediranib] + O=C(O)C(=O)Nc1sc2c(c1C(=O)O)CCNC2 [TCS401] (first compound 0.4 µM, partner dose 1.66667 µM)",302
18,"COC(=O)c1sccc1S(=O)(=O)Nc1ccc(Nc2ccccc2)cc1OC + CCCCCCCCCCCC1=C(O)C(=O)C=C(O)C1=O [Embelin] (first compound 1 µM, partner dose 1.2 µM)",91.1

# For convenience, part of the list above:
row,Structure (SMILES),cleaved PARP positive nuclei fraction [%]
13,"O=S(=O)(c1ccccc1)N(CC(F)(F)F)c1ccc(C(O)(C(F)(F)F)C(F)(F)F)cc1 + Cn1cc(/C=C2\C(=O)Nc3cccnc32)c2ccccc21 [GW441756] (first compound 1.4 µM, partner dose 0.4 µM)",36.4
14,"N#Cc1c(O)c2c(-c3ccc(-c4ccccc4O)cc3)csc2[nH]c1=O + CC(C)CCN1c2nc(Nc3cc(F)c(O)c(F)c3)ncc2N(C)C(=O)C1C [BID1870] (first compound 2 µM, partner dose 0.2 µM)",76.1
